Source: patent US5710244A (priority 1993, dated 1998)

Test: general procedure: Fmoc solid-phase peptide synthesis; FMOC-Rink-amide MBHA resin; HBTU/HOBt; HOBt/DIC for N-terminal modification
Conditions: oxidative folding step, reversed phase HPLC, C4 analytical column, 270 nm, one disulfide bridge, sequence written open

Substance | purity (crude or final not stated)
2-Pyrazinoyl-modified calcitonin (ZP-7 or 2-Pyr-SCT) | >95%
Pycolinyl-modified Calcitonin (ZP-6 or Pic-SCT) | 90%
